In PMC12180984:
Results are given in words; binding and its absence hold for the method and conditions named. In cells and extracts the contact can be indirect. Some results given as binding are weak or reduced against the parent protein; the word gives no strength. For some of these results: Tags and fused reporters may be left off the sequences shown.

Amino acid sequences for entries named in this document (tags omitted).
UniProt Q08857: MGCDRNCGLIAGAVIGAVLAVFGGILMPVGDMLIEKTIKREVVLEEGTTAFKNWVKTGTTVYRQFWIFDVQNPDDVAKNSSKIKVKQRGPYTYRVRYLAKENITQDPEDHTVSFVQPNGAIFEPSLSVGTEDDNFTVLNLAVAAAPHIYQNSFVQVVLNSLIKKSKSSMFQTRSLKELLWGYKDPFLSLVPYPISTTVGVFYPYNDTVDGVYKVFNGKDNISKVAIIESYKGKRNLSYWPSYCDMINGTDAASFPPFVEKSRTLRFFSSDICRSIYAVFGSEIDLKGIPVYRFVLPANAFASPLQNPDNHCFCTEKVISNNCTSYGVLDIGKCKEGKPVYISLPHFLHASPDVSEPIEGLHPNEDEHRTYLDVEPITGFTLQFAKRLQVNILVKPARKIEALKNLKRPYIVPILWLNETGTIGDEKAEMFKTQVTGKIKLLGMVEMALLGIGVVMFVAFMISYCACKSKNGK
UniProt P25911: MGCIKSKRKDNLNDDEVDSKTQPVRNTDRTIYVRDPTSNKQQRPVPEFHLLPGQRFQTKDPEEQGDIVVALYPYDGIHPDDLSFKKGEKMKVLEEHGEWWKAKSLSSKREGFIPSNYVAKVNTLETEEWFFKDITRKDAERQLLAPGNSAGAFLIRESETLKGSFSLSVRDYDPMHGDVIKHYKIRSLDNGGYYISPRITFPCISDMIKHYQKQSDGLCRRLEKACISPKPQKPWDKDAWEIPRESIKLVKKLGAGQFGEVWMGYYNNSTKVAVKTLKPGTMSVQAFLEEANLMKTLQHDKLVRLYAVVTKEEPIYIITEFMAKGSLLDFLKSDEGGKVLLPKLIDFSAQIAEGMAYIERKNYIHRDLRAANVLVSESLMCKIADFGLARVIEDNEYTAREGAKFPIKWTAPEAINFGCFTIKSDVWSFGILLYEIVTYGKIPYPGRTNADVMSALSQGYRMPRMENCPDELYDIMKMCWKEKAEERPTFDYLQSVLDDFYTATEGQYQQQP
UniProt P39688: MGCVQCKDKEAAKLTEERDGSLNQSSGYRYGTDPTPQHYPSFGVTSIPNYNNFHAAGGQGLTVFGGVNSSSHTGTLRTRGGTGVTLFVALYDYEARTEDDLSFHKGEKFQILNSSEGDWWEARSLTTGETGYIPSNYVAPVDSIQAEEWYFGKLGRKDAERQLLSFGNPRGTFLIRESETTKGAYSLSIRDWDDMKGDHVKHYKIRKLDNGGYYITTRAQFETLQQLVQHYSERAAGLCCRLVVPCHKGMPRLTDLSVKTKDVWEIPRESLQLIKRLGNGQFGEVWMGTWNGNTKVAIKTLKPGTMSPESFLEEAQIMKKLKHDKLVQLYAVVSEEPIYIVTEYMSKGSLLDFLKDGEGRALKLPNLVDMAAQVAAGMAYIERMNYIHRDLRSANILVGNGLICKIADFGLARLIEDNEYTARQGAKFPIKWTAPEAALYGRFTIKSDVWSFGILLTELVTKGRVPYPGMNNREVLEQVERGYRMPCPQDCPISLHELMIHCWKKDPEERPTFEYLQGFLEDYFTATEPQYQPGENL

Experiments:
[1] = target: T1, Full-length ASMase (vector of the domain mapping) (UniProt Q04519); experiment: co-IP; oxLDL-treated cells transfected with HA-CD36 and vectors expressing full-length or truncated ASMase
T1 sequence: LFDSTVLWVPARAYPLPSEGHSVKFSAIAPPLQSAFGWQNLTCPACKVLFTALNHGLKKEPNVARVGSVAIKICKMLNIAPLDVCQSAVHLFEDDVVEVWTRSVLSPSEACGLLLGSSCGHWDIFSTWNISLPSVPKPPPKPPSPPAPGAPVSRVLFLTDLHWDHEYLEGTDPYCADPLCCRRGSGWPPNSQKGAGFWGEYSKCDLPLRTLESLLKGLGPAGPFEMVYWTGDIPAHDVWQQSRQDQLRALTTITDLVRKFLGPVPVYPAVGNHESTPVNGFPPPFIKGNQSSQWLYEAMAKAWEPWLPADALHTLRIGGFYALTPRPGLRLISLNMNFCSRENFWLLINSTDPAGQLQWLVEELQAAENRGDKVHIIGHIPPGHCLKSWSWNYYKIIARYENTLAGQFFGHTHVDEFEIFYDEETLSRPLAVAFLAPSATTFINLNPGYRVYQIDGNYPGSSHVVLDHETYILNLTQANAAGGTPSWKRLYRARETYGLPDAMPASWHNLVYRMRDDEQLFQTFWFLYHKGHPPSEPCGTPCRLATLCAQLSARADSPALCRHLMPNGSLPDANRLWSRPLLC

[2] = target: CD36, endogenous in RAW264.7 macrophages (mouse (endogenous in RAW264.7)) (UniProt Q08857); experiment: co-IP; endogenous proteins of RAW264.7 cells lysed in RIPA buffer; primary antibody and protein A/G agarose overnight at 4 C, washed three times with PBS; cells untreated, LDL- or oxLDL-treated; for Lyn and Fyn with sh-ASMase or control and oxLDL for 24 h
[3] = target: Flag-CD36 (wild-type CD36) (UniProt Q08857); experiment: co-IP; RAW264.7 cells transfected with Flag-CD36 and HA-ASM, with or without oxLDL; precipitated with anti-Flag agarose gel, immunoblot with CD36 and ASMase antibodies

| Molecule | binding [2] | other results |
| --- | --- | --- |
| Hemagglutinin (HA)-CD36 (from UniProt Q08857 1-472) (receptor) | – | binding [1]: binds |
| Lyn kinase, endogenous in RAW264.7 macrophages (from UniProt P25911 1-512) (enzyme) | binds | – |
| Fyn kinase, endogenous in RAW264.7 macrophages (from UniProt P39688 1-537) (enzyme) | binds | – |
| HA-tagged ASMase (HA-ASM), expressed in RAW264.7 cells (enzyme, UniProt Q04519 45-627) LFDSTVLWVPARAYPLPSEGHSVKFSAIAPPLQSAFGWQNLTCPACKVLFTALNHGLKKEPNVARVGSVAIKICKMLNIAPLDVCQSAVHLFEDDVVEVWTRSVLSPSEACGLLLGSSCGHWDIFSTWNISLPSVPKPPPKPPSPPAPGAPVSRVLFLTDLHWDHEYLEGTDPYCADPLCCRRGSGWPPNSQKGAGFWGEYSKCDLPLRTLESLLKGLGPAGPFEMVYWTGDIPAHDVWQQSRQDQLRALTTITDLVRKFLGPVPVYPAVGNHESTPVNGFPPPFIKGNQSSQWLYEAMAKAWEPWLPADALHTLRIGGFYALTPRPGLRLISLNMNFCSRENFWLLINSTDPAGQLQWLVEELQAAENRGDKVHIIGHIPPGHCLKSWSWNYYKIIARYENTLAGQFFGHTHVDEFEIFYDEETLSRPLAVAFLAPSATTFINLNPGYRVYQIDGNYPGSSHVVLDHETYILNLTQANAAGGTPSWKRLYRARETYGLPDAMPASWHNLVYRMRDDEQLFQTFWFLYHKGHPPSEPCGTPCRLATLCAQLSARADSPALCRHLMPNGSLPDANRLWSRPLLC | – | binding [3]: binds |
